# No constants are given. Whether binding was seen depends on the method and setting. Binding seen in cells or lysates may run through a third protein. Here binding means that the protein was enriched with, or labelled near, the bait; the list need not be complete.
# Protein sequences, listed by entry. Tags and fused reporters are not part of them. Residues count along the entry.
# UniProt A6H603: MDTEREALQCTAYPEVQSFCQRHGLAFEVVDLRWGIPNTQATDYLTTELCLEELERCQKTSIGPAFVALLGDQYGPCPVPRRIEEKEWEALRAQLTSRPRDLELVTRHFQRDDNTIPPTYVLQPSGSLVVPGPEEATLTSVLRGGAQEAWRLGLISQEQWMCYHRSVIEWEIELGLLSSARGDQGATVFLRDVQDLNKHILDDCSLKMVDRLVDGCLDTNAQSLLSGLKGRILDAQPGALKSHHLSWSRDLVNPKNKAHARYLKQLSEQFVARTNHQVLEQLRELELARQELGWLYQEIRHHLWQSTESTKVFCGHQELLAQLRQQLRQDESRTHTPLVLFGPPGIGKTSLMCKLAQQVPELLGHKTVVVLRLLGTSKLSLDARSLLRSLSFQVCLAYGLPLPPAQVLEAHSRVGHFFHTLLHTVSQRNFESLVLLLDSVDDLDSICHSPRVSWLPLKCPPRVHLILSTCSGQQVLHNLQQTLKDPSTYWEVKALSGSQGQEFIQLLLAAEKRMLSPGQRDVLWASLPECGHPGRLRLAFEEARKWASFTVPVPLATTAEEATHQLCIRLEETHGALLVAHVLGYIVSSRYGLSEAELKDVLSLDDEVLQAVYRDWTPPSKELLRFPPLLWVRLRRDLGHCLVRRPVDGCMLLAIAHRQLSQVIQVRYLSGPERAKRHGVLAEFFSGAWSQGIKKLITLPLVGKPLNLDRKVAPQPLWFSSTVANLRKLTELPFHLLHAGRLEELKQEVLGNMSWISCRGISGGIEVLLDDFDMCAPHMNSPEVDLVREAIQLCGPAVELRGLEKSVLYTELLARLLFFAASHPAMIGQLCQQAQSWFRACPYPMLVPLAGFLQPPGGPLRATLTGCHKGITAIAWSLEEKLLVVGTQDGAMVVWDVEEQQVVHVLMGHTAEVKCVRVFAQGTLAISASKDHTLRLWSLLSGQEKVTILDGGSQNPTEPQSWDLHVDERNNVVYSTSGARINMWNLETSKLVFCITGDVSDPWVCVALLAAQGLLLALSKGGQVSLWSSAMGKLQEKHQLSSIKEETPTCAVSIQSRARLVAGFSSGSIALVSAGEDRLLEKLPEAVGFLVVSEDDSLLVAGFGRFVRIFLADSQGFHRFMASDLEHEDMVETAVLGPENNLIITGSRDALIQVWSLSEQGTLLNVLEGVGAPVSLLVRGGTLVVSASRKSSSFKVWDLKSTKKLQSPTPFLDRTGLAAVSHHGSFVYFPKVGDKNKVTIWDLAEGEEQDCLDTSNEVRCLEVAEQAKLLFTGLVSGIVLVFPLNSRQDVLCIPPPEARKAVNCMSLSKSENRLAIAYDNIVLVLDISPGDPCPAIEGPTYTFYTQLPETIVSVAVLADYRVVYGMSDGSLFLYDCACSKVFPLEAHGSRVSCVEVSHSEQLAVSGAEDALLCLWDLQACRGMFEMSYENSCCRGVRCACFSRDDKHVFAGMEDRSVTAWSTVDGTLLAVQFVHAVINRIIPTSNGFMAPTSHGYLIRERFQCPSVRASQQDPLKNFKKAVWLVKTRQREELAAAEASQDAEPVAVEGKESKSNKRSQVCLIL
# UniProt P51149: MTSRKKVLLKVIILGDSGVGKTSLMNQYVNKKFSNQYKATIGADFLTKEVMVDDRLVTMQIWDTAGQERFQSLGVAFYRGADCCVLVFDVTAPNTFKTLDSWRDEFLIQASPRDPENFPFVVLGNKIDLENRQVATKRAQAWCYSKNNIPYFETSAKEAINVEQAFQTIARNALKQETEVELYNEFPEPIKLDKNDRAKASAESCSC
# UniProt P27824, residues 21-592: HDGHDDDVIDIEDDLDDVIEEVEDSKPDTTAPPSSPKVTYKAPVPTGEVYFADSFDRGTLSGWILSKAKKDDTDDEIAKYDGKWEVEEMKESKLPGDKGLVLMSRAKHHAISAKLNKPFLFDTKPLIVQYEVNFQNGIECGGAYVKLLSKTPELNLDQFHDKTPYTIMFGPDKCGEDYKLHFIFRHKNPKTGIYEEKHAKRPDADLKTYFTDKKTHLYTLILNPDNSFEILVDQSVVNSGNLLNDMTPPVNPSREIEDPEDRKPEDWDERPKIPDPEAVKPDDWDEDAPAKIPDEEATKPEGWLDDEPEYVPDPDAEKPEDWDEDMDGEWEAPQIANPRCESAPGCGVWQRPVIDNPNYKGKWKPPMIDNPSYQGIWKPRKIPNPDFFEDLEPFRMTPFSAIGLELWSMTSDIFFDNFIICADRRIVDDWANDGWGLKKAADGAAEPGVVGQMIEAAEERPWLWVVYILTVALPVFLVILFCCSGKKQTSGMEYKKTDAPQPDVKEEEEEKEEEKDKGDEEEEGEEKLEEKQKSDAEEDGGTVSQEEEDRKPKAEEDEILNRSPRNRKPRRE
# UniProt P0DMV8: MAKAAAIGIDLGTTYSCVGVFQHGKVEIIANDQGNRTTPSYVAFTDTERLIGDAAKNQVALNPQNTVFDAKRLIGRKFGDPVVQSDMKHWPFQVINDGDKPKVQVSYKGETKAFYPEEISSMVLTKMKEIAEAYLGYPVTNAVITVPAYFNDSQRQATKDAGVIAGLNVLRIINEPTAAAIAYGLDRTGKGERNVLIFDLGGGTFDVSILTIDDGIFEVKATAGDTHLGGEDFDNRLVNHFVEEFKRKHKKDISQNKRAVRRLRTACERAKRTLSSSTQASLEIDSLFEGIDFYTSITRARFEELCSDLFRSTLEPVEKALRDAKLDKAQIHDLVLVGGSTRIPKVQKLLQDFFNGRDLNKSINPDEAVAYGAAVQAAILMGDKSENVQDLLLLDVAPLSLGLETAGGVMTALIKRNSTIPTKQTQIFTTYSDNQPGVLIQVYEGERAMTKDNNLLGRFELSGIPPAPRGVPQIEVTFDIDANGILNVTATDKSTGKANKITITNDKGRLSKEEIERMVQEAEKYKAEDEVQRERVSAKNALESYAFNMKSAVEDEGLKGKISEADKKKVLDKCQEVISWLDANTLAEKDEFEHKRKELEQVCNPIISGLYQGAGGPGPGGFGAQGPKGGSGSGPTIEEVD
# UniProt P21796: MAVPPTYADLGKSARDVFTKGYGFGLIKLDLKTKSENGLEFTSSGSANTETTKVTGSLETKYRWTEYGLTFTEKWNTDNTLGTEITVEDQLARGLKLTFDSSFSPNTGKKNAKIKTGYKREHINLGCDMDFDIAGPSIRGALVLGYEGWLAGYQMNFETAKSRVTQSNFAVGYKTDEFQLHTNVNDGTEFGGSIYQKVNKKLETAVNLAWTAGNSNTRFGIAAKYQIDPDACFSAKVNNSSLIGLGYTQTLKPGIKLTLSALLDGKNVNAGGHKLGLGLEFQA
# B1: sideroflexin-1 (protein, UniProt Q9H9B4 1-322)
# chain: MSGELPPNINIKEPRWDQSTFIGRANHFFTVTDPRNILLTNEQLESARKIVHDYRQGIVPPGLTENELWRAKYIYDSAFHPDTGEKMILIGRMSAQVPMNMTITGCMMTFYRTTPAVLFWQWINQSFNAVVNYTNRSGDAPLTVNELGTAYVSATTGAVATALGLNALTKHVSPLIGRFVPFAAVAAANCINIPLMRQRELKVGIPVTDENGNRLGESANAAKQAITQVVVSRILMAAPGMAIPPFIMNTLEKKAFLKRFPWMSAPIQVGLVGFCLVFATPLCCALFPQKSSMSVTSLEAELQAKIQESHPELRRVYFNKGL
# Molecular target: Halo-Nwd1 (NACHT and WD repeat domain-containing protein 1, halo-tagged) (mouse) (UniProt A6H603)
# Assay: affinity purification with mass spectrometry
row,binding,Molecule
1,binds,RAB7A (from UniProt P51149 1-207)
2,binds,calnexin (from UniProt P27824 21-592)
3,binds,heat shock 70 kDa protein 1A (from UniProt P0DMV8 1-641)
4,binds,"sarco/endoplasmic reticulum calcium ATPase (SERCA2), endogenous in HEK293T (from UniProt P16615-1 1-1042)"
5,binds,voltage-dependent anion-selective channel protein 1 (VDAC1) (from UniProt P21796 1-283)
6,binds,B1
